Experimental data as given in PubChem BioAssay AID2662 (National Center for Advancing Translational Sciences (NCATS), 2010).
The campaign covered roughly 290,000 compounds. About 110 (0.038%) were called active. The shares of active, inactive and inconclusive entries below differ from those in the screen. Calls follow the shape of the dose curve; as a rule, active = well fitted inhibition curve with a large enough effect in the polarisation, with a control signal flat (not every such curve was filed as active); inconclusive = small, poorly fitted or top-dose-only effect, or effect the other way, or a change in a side signal; inactive = no such curve, though single readings can be large or run the other way; the % refers to the polarisation. Where the call is inconclusive, the potency comes from a doubtful curve fit. “Side channel” marks fits to a control or component signal instead of the main read-out.

The chains behind the UniProt entries cited, without tags or fusion partners.
UniProt Q03164, whole entry, looked up: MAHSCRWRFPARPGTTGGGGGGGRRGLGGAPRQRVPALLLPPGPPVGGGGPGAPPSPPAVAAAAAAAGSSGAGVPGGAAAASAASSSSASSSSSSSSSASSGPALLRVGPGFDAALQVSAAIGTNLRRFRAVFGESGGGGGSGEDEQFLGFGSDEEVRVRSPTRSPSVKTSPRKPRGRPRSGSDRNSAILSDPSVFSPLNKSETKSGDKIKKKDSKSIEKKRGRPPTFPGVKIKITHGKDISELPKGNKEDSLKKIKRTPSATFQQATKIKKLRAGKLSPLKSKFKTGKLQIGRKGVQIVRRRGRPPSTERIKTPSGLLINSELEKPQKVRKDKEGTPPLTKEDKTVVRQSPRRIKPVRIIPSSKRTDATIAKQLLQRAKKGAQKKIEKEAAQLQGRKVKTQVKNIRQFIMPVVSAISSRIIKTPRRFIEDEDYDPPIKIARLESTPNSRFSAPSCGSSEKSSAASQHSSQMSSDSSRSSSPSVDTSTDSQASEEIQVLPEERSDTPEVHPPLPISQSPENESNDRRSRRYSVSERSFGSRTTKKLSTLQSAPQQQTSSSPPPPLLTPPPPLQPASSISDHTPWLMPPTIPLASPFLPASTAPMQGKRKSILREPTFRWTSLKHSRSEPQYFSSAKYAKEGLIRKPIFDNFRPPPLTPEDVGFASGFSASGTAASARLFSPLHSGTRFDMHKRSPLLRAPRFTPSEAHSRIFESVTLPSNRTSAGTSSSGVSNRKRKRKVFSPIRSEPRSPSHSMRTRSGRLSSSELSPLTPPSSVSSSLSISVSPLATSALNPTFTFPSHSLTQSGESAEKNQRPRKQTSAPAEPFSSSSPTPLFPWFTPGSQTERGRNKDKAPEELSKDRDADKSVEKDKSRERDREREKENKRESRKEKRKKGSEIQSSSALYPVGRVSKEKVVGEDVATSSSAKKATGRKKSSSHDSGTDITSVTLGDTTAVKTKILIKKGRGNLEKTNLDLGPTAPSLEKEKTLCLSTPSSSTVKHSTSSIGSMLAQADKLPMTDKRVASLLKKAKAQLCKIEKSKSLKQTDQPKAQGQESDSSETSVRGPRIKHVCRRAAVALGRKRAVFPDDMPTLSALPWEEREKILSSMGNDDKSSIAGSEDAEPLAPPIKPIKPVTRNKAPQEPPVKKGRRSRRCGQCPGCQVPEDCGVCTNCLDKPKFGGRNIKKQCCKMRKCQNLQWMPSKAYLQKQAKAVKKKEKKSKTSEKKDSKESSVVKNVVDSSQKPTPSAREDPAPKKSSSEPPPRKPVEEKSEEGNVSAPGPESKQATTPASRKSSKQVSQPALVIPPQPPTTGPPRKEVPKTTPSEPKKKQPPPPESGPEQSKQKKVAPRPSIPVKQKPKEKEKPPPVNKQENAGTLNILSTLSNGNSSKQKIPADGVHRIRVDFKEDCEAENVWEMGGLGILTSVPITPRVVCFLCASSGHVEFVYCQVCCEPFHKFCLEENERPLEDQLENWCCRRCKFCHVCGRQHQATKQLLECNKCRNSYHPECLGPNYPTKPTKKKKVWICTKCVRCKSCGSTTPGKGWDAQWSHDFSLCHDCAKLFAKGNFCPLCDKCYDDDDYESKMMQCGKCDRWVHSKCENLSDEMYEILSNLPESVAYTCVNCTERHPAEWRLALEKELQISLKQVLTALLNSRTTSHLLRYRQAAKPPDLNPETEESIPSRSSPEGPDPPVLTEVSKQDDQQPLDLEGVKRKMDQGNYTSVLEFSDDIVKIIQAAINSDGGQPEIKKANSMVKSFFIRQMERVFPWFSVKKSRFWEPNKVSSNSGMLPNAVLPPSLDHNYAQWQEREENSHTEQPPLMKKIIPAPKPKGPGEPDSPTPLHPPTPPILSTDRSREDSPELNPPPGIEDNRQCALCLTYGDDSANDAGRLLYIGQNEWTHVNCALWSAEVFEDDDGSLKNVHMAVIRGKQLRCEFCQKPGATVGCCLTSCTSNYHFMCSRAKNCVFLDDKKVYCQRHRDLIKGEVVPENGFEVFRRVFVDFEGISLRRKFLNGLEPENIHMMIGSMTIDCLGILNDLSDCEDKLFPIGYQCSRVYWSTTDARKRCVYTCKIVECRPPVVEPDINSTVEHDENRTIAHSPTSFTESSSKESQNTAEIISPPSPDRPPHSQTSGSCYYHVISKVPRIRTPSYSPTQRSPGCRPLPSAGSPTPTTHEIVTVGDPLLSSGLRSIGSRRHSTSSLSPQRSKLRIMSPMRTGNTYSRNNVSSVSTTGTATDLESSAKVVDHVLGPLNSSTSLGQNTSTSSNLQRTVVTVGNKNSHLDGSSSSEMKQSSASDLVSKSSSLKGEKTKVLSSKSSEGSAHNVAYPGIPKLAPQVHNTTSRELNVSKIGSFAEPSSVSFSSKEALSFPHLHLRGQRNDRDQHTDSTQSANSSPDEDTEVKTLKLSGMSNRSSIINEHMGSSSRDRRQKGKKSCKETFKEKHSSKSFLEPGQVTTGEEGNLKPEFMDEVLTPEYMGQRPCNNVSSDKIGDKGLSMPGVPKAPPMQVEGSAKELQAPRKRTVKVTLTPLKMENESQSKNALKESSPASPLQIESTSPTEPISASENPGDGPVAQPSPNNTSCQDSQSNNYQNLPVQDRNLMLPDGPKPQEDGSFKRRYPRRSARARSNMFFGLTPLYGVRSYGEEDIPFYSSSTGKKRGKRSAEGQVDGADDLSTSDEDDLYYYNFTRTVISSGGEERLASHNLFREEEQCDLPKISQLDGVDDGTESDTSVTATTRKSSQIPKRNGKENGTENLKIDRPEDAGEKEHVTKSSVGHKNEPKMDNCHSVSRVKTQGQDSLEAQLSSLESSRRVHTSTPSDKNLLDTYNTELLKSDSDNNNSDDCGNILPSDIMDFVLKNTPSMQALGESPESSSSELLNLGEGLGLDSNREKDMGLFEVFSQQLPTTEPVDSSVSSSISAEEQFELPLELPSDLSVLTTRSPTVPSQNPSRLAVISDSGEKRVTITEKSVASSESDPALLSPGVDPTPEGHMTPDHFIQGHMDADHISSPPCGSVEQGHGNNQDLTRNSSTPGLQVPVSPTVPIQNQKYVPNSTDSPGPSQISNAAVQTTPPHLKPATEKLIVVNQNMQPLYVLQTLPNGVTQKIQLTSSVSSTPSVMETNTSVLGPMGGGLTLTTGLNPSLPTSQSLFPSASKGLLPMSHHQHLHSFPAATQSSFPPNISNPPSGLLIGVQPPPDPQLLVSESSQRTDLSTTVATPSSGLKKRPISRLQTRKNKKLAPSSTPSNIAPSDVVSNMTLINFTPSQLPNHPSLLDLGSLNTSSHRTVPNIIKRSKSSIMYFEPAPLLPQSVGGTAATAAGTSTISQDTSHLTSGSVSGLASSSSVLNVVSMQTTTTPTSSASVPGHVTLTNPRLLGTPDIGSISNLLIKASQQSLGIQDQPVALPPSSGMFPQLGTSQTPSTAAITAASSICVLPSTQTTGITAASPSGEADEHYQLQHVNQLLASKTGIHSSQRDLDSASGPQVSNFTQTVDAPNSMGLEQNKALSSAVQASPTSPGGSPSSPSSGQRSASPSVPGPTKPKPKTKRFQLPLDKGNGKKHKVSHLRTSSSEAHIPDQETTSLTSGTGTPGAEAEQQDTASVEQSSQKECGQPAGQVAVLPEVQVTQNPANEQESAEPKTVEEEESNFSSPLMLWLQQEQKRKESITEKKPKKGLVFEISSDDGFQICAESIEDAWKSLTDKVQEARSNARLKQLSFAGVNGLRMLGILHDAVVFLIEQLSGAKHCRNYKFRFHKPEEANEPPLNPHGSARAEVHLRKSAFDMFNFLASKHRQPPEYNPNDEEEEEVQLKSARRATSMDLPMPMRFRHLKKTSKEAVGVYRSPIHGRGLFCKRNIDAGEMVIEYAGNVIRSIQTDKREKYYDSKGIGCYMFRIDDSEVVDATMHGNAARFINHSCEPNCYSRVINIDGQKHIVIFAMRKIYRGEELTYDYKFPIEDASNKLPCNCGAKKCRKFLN

target: Histone-lysine N-methyltransferase 2A (Homo sapiens) (UniProt Q03164); assay: qHTS Fluorescence Polarization Assay for Inhibitors of MLL CXXC domain - DNA interaction; conditions: MLL-CXXC / FITC-HOXA9 DNA fluorescence polarization; series mostly up to 115 µM
Outline: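 Purified MLL-CXXC (added from a 7 uM solution) was preincubated 5 min at ambient with pinned compounds in 50 mM Tris-HCl pH 7.5, 50 mM NaCl, 1 mM DTT, 0.05% BSA. Fluorescein-labeled HOX-A9 DNA (50 nM solution) followed, 30 min, then polarization read.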
Potency is read from the fitted curve at half-maximal effect.

| Structure (SMILES) | Potency |
| --- | --- |
| O=C1c2cccc3c(N4CCCCC4)ccc(c23)C(=O)N1c1cccc(O)c1 | inconclusive: 5.01 µM [fluorescent, side channel, partial curve] |
| CCOc1ccc(N=CNc2ccc(OCC)cc2)cc1 | inconclusive: 15.8 µM [fluorescent, side channel, single point] |
| COc1ccccc1-c1sc2ccccc2c1-c1ccc2c(c1)OCO2 | inactive |
| Cc1c(Cl)cccc1NC(=O)NCc1ccc(C)n1C | inconclusive: 44.7 µM [fluorescent, side channel, single point] |
| O=C(CCCn1c(SCC(=O)c2ccc(O)c(O)c2)nc2ccccc2c1=O)NCC1CCCO1 (configuration not stated) | inactive |
| O=C(N/N=C/c1ccc2c(c1)OCO2)c1ccc2c(c1)OCCO2 | inactive |
| CC1=NN(C(N)=S)C(=O)C1N=Nc1ccccc1O (configuration not stated) | inactive |
| CCN(CC)S(=O)(=O)c1cccc(C(=O)N/N=C(\C)c2ccc(O)cc2O)c1 | inconclusive: 25.1 µM [fluorescent, side channel, partial curve] |
| COc1ccc(-c2cc(C(F)(F)F)nc(SCC(=O)NCc3cccs3)n2)cc1OC | inactive |
| CCc1nc(N2CCC(C)CC2)c2oc3ccccc3c2n1 | inactive |
| CS(=O)(=O)c1ccc(-c2cccc(NC(=O)COc3ccc(Cl)cc3)c2)nn1 | inconclusive: 0.891 µM [fluorescent, side channel, full curve, poor fit] |
| COc1ccc(C(=O)N2CCN(C)C(=O)[C@@H]2C)cc1OC1CCN(C(C)=O)CC1 | inactive |
| COc1cccc(N(C(=O)Cn2nnc3ccccc32)C(C(=O)NCc2ccco2)c2cccnc2)c1 (configuration not stated) | inactive |
| CC(C)[C@H](NC(N)=O)C(=O)NCCc1ccc(Cl)cc1 | inconclusive: 89.1 µM [inhibitor, single point] |
| Cc1ccc2c(c1)C(=O)CC(O)(C(F)(F)F)O2 (configuration not stated) | inactive |
| COc1cccc2c1C(=O)c1c(O)c3c(c(O)c1C2=O)C[C@@](O)(C(C)=O)C[C@@H]3O[C@H]1C[C@H](N)[C@H](O)[C@H](C)O1 | active: 10 µM |
| Cc1ccc(C(=O)NNS(=O)(=O)c2ccc(F)cc2)cc1 | inconclusive: 2.82 µM [fluorescent, side channel, full curve] |
| CN(C)c1ccc(/C=C(\C#N)C(=O)c2ccccc2)cc1 | inconclusive: 10 µM [fluorescent, side channel, full curve] |
| COc1ccc(CCNC(=S)Nc2ccc(S(=O)(=O)Nc3ncccn3)cc2)cc1OC | inconclusive: 15.8 µM [fluorescent, side channel, single point] |
| O=C1Nc2ccccc2N(O)N1c1ccc(Cl)c(Cl)c1 | inactive |
| O=C(Nc1cccc(C(=O)Nc2ccc(S(=O)(=O)O)c3cc(S(=O)(=O)O)cc(S(=O)(=O)O)c23)c1)Nc1cccc(C(=O)Nc2ccc(S(=O)(=O)O)c3cc(S(=O)(=O)O)cc(S(=O)(=O)O)c23)c1 | active: 15.8 µM |

| Structure (SMILES) | Potency |
| --- | --- |
| N#Cc1ccc(NC(=O)N2CCC(c3nc4c(nnn4Cc4cccc(Cl)c4)c(=O)[nH]3)CC2)cc1 | inconclusive: 35.5 µM [fluorescent, side channel, partial curve] |
| Cc1ccc2c(c1)cc(CN(C(=O)N1CCOCC1)C1CCCC1)c1nnnn12 | inconclusive: 1 µM [inhibitor, full curve, poor fit] |
| Cc1ccc(S(=O)(=O)N(CC(=O)NCc2ccccn2)c2ccc(Cl)cc2)cc1 | inconclusive: 14.1 µM [fluorescent, side channel, single point] |
| COc1ccc(C(=O)N2CCOC2CNC(=O)C(=O)NCc2ccccc2Cl)cc1 (configuration not stated) | inconclusive: 10 µM [quencher, side channel, single point] |
| N#CC1=C(N)Oc2c(sc3ccccc23)C1c1ccco1 (configuration not stated) | inconclusive: 20 µM [fluorescent, side channel, partial curve] |
| COc1cc(OC)c([N+](=O)[O-])cc1/C=N/NC(=O)c1ccncc1 | inconclusive: 70.8 µM [inhibitor, single point] |
| COc1ccc(-c2nn(-c3ccccc3)cc2/C=C2/SC(=S)N(CCC(=O)O)C2=O)cc1 | inconclusive: 70.8 µM [inhibitor, partial curve, poor fit] |
| Cc1cccc(C)c1Nc1c(-c2ccccn2)nc2ccccn12 | inconclusive: 44.7 µM [quencher, side channel, partial curve] |
| CC(=O)NC1=NC(=O)/C(=C/c2cc(C)n(-c3ccc(NC(C)=O)cc3)c2C)S1 | inconclusive: 28.2 µM [fluorescent, side channel, partial curve] |
| O=C1N/C(=C/c2ccc(N3CCCC3)cc2)C(=O)N1c1ccccc1 | inactive |
| O=S(=O)(O)c1cc(O)c2c(N=Nc3ccc(Nc4ccccc4)c4c(S(=O)(=O)O)cccc34)cc(S(=O)(=O)O)cc2c1 | inconclusive: 79.4 µM [inhibitor, single point] |
| O=C1NS(=O)(=O)c2ccccc21 | inconclusive: 35.5 µM [quencher, side channel, full curve, poor fit] |
| Cc1ccc(N2C(=O)CC(Sc3ncccc3C(=O)O)C2=O)cc1 (configuration not stated) | inactive |
| COc1ccc(Cl)cc1NC(=S)Nc1ccccc1F | inconclusive: 10 µM [inhibitor, partial curve] |
| C[N+]1=C2CCCCCN2C(O)(c2ccccc2)C1 (configuration not stated) | inactive |
| S=C(Nc1ccccc1)NC1CCN(Cc2ccccc2)CC1 | inconclusive: 1.12 µM [fluorescent, side channel, full curve, poor fit] |
| CCOc1ccccc1/C=N/Nc1ccnc(=O)[nH]1 | inconclusive: 63.1 µM [quencher, side channel, single point] |
| COc1ccc(S(=O)(=O)N(C)CC(=O)Nc2ccccc2C(F)(F)F)cc1Cl | inconclusive: 39.8 µM [quencher, side channel, single point] |
| COc1ccc(NC(=O)/C(C#N)=C/c2ccc(Br)o2)cc1 | inconclusive: 1.58 µM [fluorescent, side channel, full curve, poor fit] |
| CCN1CCN(Cc2nnc(-c3ccccc3)o2)CC1 | inconclusive: 8.91 µM [fluorescent, side channel, partial curve] |
| Cc1ccc2c(Cl)cc(Cl)c(OCC(=O)OCC(=O)Nc3ccc(C#N)cc3)c2n1 | inconclusive: 15.8 µM [fluorescent, side channel, single point] |

| Structure (SMILES) | Potency |
| --- | --- |
| N=C1C(c2nc3ccccc3[nH]2)=C(O)CN1c1ccc(F)cc1 | inconclusive: 10 µM [inhibitor, full curve, poor fit] |
| O=c1oc2c(O)c(O)cc3c(=O)oc4c(O)c(O)cc1c4c23 | inconclusive: 11.2 µM [inhibitor, full curve] |
| COc1ccc(C(=O)CC2OC(=O)c3c2ccc(OC)c3OC)cc1 (configuration not stated) | inconclusive: 17.8 µM [inhibitor, partial curve] |
| Cc1ccc(N(C(=O)Cn2nnc3ccccc32)C(C(=O)NCc2ccco2)c2cccnc2)cc1 (configuration not stated) | inactive |
| Cc1ccc(-n2c(C)cc(/C=N/Nc3ccc([N+](=O)[O-])cn3)c2C)cc1 | inactive |
| CC(C)CC1C(C#N)=C(N)SC(N)=C1C#N | inconclusive: 35.5 µM [fluorescent, side channel, partial curve] |
| Cc1cc2c(NC(=O)Nc3ccc(C(C)(C)C)cc3)cccc2nn1 | inactive |
| COc1ccc(CCNC(=O)CC(c2ccccc2)c2cc(C)ccc2O)cc1OC (configuration not stated) | inconclusive: 89.1 µM [inhibitor, single point] |
| O=C(NC1CCCCC1)c1cc(S(=O)(=O)N2CCOCC2)ccc1Cl | inconclusive: 50.1 µM [fluorescent, side channel, partial curve] |
| Cc1ccc(/C=N/n2c(=O)c(C(C)(C)C)nn3cnnc23)cc1 | inactive |
| CCc1ccccc1Oc1coc2cc(O)ccc2c1=O | inconclusive: 63.1 µM [fluorescent, single point] |
| CN(C)c1ccc(/C=C2\N=C(C(C)(C)C)OC2=O)cc1 | inconclusive: 56.2 µM [fluorescent, side channel, single point] |
| CCCONC(=O)Nc1ccccc1[N+](=O)[O-] | inconclusive: 44.7 µM [fluorescent, side channel, single point] |
| O=C1c2cccc3c(N4CCCCC4)ccc(c23)C(=O)N1c1ccccc1O | inconclusive: 22.4 µM [fluorescent, side channel, partial curve] |
| COc1ccc(OCCCC(=O)Nc2cccc(C(C)=O)c2)cc1 | inconclusive: 15.8 µM [fluorescent, side channel, single point] |
| Cc1ccnc(NC(c2ccccc2O)c2oc(CO)cc(=O)c2O)c1 (configuration not stated) | inconclusive: 89.1 µM [inhibitor, single point] |
| COc1cc(/C=C2\SC(=S)N(NC(=O)c3ccc(O)cc3)C2=O)ccc1O | inconclusive: 11.2 µM [fluorescent, side channel, partial curve] |
| Cc1onc(-c2ccccc2)c1-c1nc2ccccc2c(=O)o1 | inconclusive: 17.8 µM [fluorescent, side channel, partial curve] |
| CCN(CC)C(=O)CSc1nnc2nnc3cc(Cl)ccc3n12 | inconclusive: 31.6 µM [inhibitor, single point] |
| CCc1cccc2cc3c(N)c(C(=O)Nc4ccc(S(=O)(=O)N5CCCC5)cc4)sc3nc12 | inconclusive: 70.8 µM [fluorescent, side channel, single point] |

Nothing new here: entries from further up.

| Structure (SMILES) | Potency |
| --- | --- |
| COc1ccc(C(=O)CC2OC(=O)c3c2ccc(OC)c3OC)cc1 (configuration not stated) | inconclusive: 17.8 µM [inhibitor, partial curve] |
| Cc1ccc(N(C(=O)Cn2nnc3ccccc32)C(C(=O)NCc2ccco2)c2cccnc2)cc1 (configuration not stated) | inactive |
| Cc1ccc(-n2c(C)cc(/C=N/Nc3ccc([N+](=O)[O-])cn3)c2C)cc1 | inactive |
| CC(C)CC1C(C#N)=C(N)SC(N)=C1C#N | inconclusive: 35.5 µM [fluorescent, side channel, partial curve] |
